Source: paper PMC3741135

The chains behind the UniProt entries cited, without tags or fusion partners. Where a name states a change or a piece, a line headed by the entry shows the natural chain unless it says otherwise.
UniProt G9BWQ2: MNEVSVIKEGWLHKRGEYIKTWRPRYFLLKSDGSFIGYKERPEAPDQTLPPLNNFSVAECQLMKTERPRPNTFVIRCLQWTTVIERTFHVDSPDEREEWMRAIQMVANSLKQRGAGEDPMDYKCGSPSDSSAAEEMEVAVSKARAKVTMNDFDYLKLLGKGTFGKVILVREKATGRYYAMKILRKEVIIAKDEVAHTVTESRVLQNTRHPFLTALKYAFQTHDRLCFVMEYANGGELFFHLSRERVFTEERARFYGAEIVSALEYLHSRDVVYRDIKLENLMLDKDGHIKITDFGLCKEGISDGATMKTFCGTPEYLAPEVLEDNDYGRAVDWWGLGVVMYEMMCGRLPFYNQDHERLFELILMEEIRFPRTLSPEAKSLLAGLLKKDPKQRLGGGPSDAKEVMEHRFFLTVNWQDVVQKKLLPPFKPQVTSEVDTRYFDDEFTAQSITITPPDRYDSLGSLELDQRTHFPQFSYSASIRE
UniProt F1RNW6: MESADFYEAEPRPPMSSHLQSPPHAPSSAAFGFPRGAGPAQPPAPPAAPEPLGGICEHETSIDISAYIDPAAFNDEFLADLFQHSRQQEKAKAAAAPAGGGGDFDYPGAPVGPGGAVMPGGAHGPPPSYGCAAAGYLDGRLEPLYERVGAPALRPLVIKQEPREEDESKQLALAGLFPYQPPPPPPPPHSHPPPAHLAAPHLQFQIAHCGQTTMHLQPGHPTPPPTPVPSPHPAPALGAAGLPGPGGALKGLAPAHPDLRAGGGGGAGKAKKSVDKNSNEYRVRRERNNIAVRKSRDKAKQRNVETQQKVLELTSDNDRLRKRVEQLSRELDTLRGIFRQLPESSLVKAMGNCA

What was measured:
[1] = target: T1, Sirt1 (endogenous, porcine adipocytes) (pig (endogenous in porcine adipocytes)) (UniProt A7LKB1); assay: co-IP; endogenous proteins; 10 mg total porcine adipocyte lysate with 4 µg antibody overnight, captured on goat anti-rabbit or anti-mouse IgG magnetic beads for 4 h; washed 4 times with lysis buffer; Western blot; Akt2 with Sirt1 over the days of differentiation, the other pairs at day 8 after induction
T1 sequence: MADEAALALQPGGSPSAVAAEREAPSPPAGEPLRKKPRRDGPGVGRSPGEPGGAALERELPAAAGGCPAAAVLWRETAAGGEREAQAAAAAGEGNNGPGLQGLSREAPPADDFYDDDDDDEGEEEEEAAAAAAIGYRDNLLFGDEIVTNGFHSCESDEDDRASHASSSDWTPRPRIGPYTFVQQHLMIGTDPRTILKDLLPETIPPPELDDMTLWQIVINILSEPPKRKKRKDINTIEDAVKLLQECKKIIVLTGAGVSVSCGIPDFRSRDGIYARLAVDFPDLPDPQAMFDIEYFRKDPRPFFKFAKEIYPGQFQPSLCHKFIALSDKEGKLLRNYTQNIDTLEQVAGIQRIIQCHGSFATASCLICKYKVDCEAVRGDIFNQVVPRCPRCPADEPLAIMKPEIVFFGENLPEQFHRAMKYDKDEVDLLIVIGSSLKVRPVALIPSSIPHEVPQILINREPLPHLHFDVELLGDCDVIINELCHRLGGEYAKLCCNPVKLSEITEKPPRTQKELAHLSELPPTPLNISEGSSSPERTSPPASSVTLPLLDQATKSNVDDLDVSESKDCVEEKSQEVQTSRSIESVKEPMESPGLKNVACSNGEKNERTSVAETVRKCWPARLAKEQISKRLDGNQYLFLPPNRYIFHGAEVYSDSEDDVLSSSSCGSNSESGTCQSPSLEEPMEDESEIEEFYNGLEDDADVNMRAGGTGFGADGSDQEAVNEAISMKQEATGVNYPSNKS

[2] = target: Akt2 (endogenous, porcine adipocytes) (pig (endogenous in porcine adipocytes)) (UniProt G9BWQ2); assay: as above

Row | binding [1] | binding [2] | Substance
1 | binds | – | Akt2 (endogenous, porcine adipocytes) (from UniProt G9BWQ2)
2 | – | binds | C/EBPα (endogenous, porcine adipocytes) (from UniProt F1RNW6 1-354)

No constants are given. Whether binding was seen depends on the method and setting. Binding seen in cells or lysates may run through a third protein. Binding can be weak; no strength is given.
